Results taken from publication doi:10.1101/2022.09.23.509242.
Read-outs that look alike come from different tables or passages of the source. These are yes or no findings as the source states them, for the method shown. Binding calls can cover weak binding; strength is not graded here. Where a sequence is shown, tags or fusion partners need not be part of it.

Key:
Experiment in all cases: native gel or EMSA
FLAG-tagged Brn4 [1] = target: T1, FLAG-tagged Brn4 (UniProt P62515)
T1 sequence: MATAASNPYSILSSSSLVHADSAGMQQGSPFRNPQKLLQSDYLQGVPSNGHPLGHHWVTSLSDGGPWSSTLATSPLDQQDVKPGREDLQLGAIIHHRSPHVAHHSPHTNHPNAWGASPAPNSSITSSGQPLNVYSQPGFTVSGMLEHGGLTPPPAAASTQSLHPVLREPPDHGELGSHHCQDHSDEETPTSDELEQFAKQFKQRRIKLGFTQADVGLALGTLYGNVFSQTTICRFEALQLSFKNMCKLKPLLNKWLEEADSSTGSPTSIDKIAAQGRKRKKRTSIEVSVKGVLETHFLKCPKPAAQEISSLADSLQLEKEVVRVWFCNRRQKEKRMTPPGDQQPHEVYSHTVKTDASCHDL

[2] = target: T2, FLAG-tagged Oct6 (Pou3f1) (UniProt P21952)
T2 sequence: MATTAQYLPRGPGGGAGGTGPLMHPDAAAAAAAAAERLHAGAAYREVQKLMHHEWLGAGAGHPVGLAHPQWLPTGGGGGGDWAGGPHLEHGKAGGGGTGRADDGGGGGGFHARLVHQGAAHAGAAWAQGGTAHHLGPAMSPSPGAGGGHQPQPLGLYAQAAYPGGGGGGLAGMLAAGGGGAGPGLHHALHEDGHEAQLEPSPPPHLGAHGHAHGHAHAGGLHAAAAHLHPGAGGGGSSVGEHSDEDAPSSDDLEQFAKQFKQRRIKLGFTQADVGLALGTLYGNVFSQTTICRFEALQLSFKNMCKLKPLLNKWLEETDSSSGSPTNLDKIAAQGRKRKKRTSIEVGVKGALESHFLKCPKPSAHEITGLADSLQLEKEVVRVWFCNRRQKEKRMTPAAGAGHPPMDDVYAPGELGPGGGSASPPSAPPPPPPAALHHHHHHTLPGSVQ

[3] = target: T3, FLAG-tagged Oct1 (Pou2f1) (UniProt P25425)
T3 sequence: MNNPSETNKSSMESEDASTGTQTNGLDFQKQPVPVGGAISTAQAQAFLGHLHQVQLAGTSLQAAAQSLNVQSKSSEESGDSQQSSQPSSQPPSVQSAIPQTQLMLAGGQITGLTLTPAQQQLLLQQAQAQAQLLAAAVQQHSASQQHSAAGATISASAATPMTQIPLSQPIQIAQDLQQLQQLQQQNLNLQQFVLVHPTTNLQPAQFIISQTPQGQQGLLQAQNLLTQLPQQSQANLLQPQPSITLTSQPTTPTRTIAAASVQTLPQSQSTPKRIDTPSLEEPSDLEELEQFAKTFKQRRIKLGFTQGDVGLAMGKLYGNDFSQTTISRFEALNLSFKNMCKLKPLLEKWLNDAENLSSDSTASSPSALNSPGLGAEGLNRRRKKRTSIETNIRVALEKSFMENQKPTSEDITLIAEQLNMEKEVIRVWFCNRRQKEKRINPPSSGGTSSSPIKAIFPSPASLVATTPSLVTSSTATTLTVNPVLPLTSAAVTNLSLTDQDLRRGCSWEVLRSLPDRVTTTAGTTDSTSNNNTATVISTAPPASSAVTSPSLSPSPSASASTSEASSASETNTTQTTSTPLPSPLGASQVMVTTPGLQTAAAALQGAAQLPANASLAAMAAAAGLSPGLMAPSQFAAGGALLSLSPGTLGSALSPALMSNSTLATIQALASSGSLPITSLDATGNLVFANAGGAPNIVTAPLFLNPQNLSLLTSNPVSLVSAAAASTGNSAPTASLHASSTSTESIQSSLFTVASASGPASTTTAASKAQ

FLAG-tagged Brn4 [4] = target: T1, FLAG-tagged Brn4; remark: listed apart in the source

Measured: binding

Sox2^A61V, overexpressed in HEK293 (mouse)
binds: all assays above
